According to doi:10.1101/2022.01.01.474694:
No constants are given. Whether binding was seen depends on the method and setting. Binding seen in cells or lysates may run through a third protein. Some results given as binding are weak or reduced against the parent protein; the word gives no strength.

Protein sequences, listed by entry. Tags and fused reporters are not part of them.
UniProt P02730: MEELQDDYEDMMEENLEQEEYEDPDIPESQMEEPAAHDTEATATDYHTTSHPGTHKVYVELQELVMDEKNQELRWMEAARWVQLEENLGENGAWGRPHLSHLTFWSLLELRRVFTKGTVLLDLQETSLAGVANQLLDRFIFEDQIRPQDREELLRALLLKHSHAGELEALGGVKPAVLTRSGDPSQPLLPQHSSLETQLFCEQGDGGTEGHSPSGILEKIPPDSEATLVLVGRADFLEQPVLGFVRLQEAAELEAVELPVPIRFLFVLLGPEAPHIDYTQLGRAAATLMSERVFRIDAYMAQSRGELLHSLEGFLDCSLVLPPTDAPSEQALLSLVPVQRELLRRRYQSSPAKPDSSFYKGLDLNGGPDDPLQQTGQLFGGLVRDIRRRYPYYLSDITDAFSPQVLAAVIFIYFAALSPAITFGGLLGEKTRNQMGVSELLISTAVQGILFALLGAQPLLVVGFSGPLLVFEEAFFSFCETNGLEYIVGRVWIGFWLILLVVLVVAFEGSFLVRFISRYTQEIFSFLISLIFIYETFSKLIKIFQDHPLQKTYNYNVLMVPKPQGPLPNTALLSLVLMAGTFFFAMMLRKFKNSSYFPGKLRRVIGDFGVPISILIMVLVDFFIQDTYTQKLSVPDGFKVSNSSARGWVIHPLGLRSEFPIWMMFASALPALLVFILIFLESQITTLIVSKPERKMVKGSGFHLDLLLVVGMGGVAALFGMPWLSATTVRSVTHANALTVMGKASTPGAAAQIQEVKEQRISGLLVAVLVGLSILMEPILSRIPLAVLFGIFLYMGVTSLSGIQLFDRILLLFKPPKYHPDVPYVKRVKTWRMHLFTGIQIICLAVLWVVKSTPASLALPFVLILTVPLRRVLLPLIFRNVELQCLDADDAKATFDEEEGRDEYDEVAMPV

Biological target: Band 3 (RBC integral membrane protein) (human (endogenous in RBCs)) (UniProt P02730)
Test: proximity ligation

B1: toll-like receptor 7 (TLR7) (receptor, UniProt Q9NYK1 27-1049)
chain: ARWFPKTLPCDVTLDVPKNHVIVDCTDKHLTEIPGGIPTNTTNLTLTINHIPDISPASFHRLDHLVEIDFRCNCVPIPLGSKNNMCIKRLQIKPRSFSGLTYLKSLYLDGNQLLEIPQGLPPSLQLLSLEANNIFSIRKENLTELANIEILYLGQNCYYRNPCYVSYSIEKDAFLNLTKLKVLSLKDNNVTAVPTVLPSTLTELYLYNNMIAKIQEDDFNNLNQLQILDLSGNCPRCYNAPFPCAPCKNNSPLQIPVNAFDALTELKVLRLHSNSLQHVPPRWFKNINKLQELDLSQNFLAKEIGDAKFLHFLPSLIQLDLSFNFELQVYRASMNLSQAFSSLKSLKILRIRGYVFKELKSFNLSPLHNLQNLEVLDLGTNFIKIANLSMFKQFKRLKVIDLSVNKISPSGDSSEVGFCSNARTSVESYEPQVLEQLHYFRYDKYARSCRFKNKEASFMSVNESCYKYGQTLDLSKNSIFFVKSSDFQHLSFLKCLNLSGNLISQTLNGSEFQPLAELRYLDFSNNRLDLLHSTAFEELHKLEVLDISSNSHYFQSEGITHMLNFTKNLKVLQKLMMNDNDISSSTSRTMESESLRTLEFRGNHLDVLWREGDNRYLQLFKNLLKLEELDISKNSLSFLPSGVFDGMPPNLKNLSLAKNGLKSFSWKKLQCLKNLETLDLSHNQLTTVPERLSNCSRSLKNLILKNNQIRSLTKYFLQDAFQLRYLDLSSNKIQMIQKTSFPENVLNNLKMLLLHHNRFLCTCDAVWFVWWVNHTEVTIPYLATDVTCVGPGAHKGQSVISLDLYTCELDLTNLILFSLSISVSLFLMVMMTASHLYFWDVWYIYHFCKAKIKGYQRLISPDCCYDAFIVYDTKDPAVTEWVLAELVAKLEDPREKHFNLCLEERDWLPGQPVLENLSQSIQLSKKTVFVMTDKYAKTENFKIAFYLSHQRLMDEKVDVIILIFLEKPFQKSKFLQLRKRLCGSSVLEWPTNPQAHPYFWQCLKNALATDNHVAYSQVFKETV
B1 was tested, and the binding was “binds”.
